# Laboratory results: PubChem BioAssay AID445 (National Center for Advancing Translational Sciences (NCATS), 2006)
# Some of the results follow. The main result of the screen is listed elsewhere. These columns were measured beside it and carry no call. Most of these compounds were active or inconclusive in the main read-out, so they are no random draw. Potencies come from curve fits of mixed quality, noted in brackets.
# Assay: IkB Signaling
# Details: ABC-DLBCL IkBa-CBG/CBR dual luciferase ratio (green luciferase fused to IkBa over red control in OCI-Ly3 lymphoma cells), 4 h
# Method in brief: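 Luminescence ratio of IκBα-fused green versus native red beetle luciferase in OCI-Ly3 cells, 4 h post-doxycycline with compound; red signal alone, scaled from basal (0%) to zero light (-100%), flagged nonspecific or cytotoxic effects.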
# [1] = measured here: control luc red channel unless noted
smiles,measurement,setting,value
COc1cccc(N2CCN(S(=O)(=O)c3cn(C)c(C)n3)CC2)c1,AC50,[1],"0.00631 µM [falling, full curve, poor fit]"
CCOC(=O)N1CCN(C(=O)c2nc3ccccc3s2)CC1,AC50,[1],"0.316 µM [falling, full curve]"
CCCCN1C(=O)c2[nH]nc(-c3ccccc3O)c2C1c1ccc(C(C)(C)C)cc1 (centres undefined),AC50,[1],"15.8 µM [falling, partial curve]"
O=C(Nc1cccc(Cl)c1)c1ccc2nc(CCc3ccccc3)oc2c1,AC50,[1],"10 µM [falling, partial curve]"
Cc1ccc(-c2nc3cc(Cl)ccc3o2)cc1NC(=O)c1cc([N+](=O)[O-])ccc1N1CCOCC1,AC50,[1],"1 µM [falling, full curve]"
CCC(=O)N1CCc2cc(Br)cc(S(=O)(=O)N3CCC(C(=O)Nc4ccccc4CC)CC3)c21,AC50,[1],"25.1 µM [falling, single point]"
COc1cccc(C2CC(=O)Nc3cc4c(cc32)OCO4)c1OC(C)C (centres undefined),AC50,[1],"20 µM [falling, partial curve]"
CC(C)Oc1ccc(CNC(=O)C2CCN(c3nc4ccccc4nc3C(F)(F)F)CC2)cc1,AC50,[1],"25.1 µM [rising, single point]"
CCc1nn(CCCC(=O)N2CCN(c3cc(Cl)ccc3C)CC2)c(=O)c2cc3occc3n12,AC50,[1],"15.8 µM [falling, partial curve]"
CCOc1ccc2nc(NC(=O)C3CCCN(S(=O)(=O)c4c(C)noc4C)C3)sc2c1 (centres undefined),AC50,[1],"12.6 µM [falling, partial curve]"
CCOC(=O)N1CCC(N2CCN(S(=O)(=O)c3ccc(NC(C)=O)cc3)CC2)CC1,AC50,[1],"10 nM [rising, full curve] [measured here: IkB-luc green channel]"
C=CS(=O)(=O)c1ccc(Oc2ccc(S(=O)(=O)C=C)cc2)cc1,AC50,measured here: IkB-luc green channel,"5.01 µM [falling, full curve, poor fit]"
same,AC50,measured here: control luc red channel,"1.26 µM [falling, full curve]"
COc1ccc(CC(=O)NC2CC(=O)N(c3cccc(F)c3)C2)cc1OC (centres undefined),AC50,[1],"3.98 µM [falling, partial curve]"
Cc1ccc(C2=Nc3ccccc3N(CC(=O)Nc3ccccc3F)C(=O)C2)cc1C,AC50,[1],"31.6 µM [falling, partial curve]"
Cc1c(C(=O)Nc2ccc(F)c(Cl)c2)oc2ccc(S(=O)(=O)N(C)C3CCCCC3)cc12,AC50,[1],"15.8 µM [falling, partial curve]"
Cc1oc2ccc(O)c(CN3CCCCC3)c2c1C(=O)Nc1cccc(C(F)(F)F)c1,AC50,[1],"39.8 µM [falling, single point]"
O=C(Nc1cccc(Cl)c1)c1cnn2cccnc12,AC50,[1],"0.316 µM [rising, partial curve]"
COCc1c(C(=O)OCC(=O)c2c(N)n(CC(C)C)c(=O)n(C)c2=O)oc2ccccc12,AC50,[1],"31.6 µM [falling, partial curve]"
COc1ccccc1-c1nc(SCc2ccccn2)n[nH]1,AC50,[1],"0.000794 µM [falling, full curve]"
Cc1cn2c(=O)cc(COc3ccc(NC(=O)c4ccccc4C)cc3)nc2s1,AC50,[1],"0.158 µM [rising, partial curve]"
COc1ccc(C)cc1NC(=O)CSc1nnc(COc2ccccc2)n1Cc1ccco1,AC50,[1],"15.8 µM [falling, partial curve]"
CCCOc1ccc(-c2nc(N3CCCCC3)c3ccccc3n2)cc1,AC50,[1],"5.01 µM [rising, full curve]"
Cc1nn(C)c2c1c(C(F)(F)F)cc(=O)n2CC(=O)N1CCCCC1C (centres undefined),AC50,[1],"39.8 µM [falling, single point]"
O=C(Nc1ccc(F)cc1F)C1CCN(S(=O)(=O)c2ccc3[nH]c(=O)ccc3c2)CC1,AC50,[1],"200 nM [rising, full curve] [measured here: IkB-luc green channel]"
COc1cc(NC(=O)CCc2nc3cccnc3n2Cc2cccs2)cc(OC)c1OC,AC50,[1],"20 µM [falling, single point]"
CCc1ccc(OCc2nc(-c3ccc(OC)c(OC)c3)no2)c(Br)c1,AC50,[1],"39.8 µM [falling, single point]"
O=C(CCc1nc2cccnc2n1-c1ccccc1)Nc1ccc(Cl)c(Cl)c1,AC50,[1],"31.6 µM [falling, partial curve]"
CN(C)c1ccc(C2C=C(c3ccccc3)Nc3nnnn32)cc1 (centres undefined),AC50,[1],"0.316 µM [falling, full curve]"
COc1ccc(CNC(=O)CCNS(=O)(=O)c2cccc3nsnc23)cc1,AC50,[1],"2 µM [falling, partial curve]"
O=C(NCCCN1CCOCC1)c1cc(-c2cccs2)on1,AC50,[1],"10 µM [rising, partial curve]"
CCOc1ccccc1CNC(=O)c1ccc(NC(=O)N2CCSc3ncccc32)cc1,AC50,[1],"12.6 µM [falling, partial curve]"
CN(C)c1ccc(N=Cc2ccco2)cc1,AC50,[1],"3.98 µM [falling, full curve]"
COc1ccc(OC)c(CNC(=O)Cn2nc(C)c3nn(-c4ccc(Cl)cc4)c(C)c3c2=O)c1,AC50,[1],"31.6 µM [falling, partial curve, poor fit]"
COc1ccc2oc(=O)c(-c3cn4c(n3)sc3cc(OC)ccc34)cc2c1,AC50,[1],"39.8 µM [falling, single point]"
Clc1ccc(N2CCN(c3ncnc4c3cnn4-c3ccccc3)CC2)cc1Cl,AC50,[1],"25.1 µM [falling, single point]"
Cc1ccc(NCc2nnc(SCC(=O)N(Cc3ccccc3)C(C)(C)C)o2)c(C)c1,AC50,[1],"20 µM [falling, single point]"
COc1ccc(NC(=O)c2cc(S(=O)(=O)N3CCCCCC3)cn2C)cc1Cl,AC50,[1],"5.01 µM [falling, full curve]"
COc1ccc(N(Cc2cccs2)C(=O)c2ccc(C(C)(C)C)cc2)cc1,AC50,[1],"15.8 µM [falling, partial curve]"
COc1cc2[nH]c(=O)n(Cc3ccc(C(=O)N4CCN(c5cc(Cl)ccc5C)CC4)cc3)c(=O)c2cc1OC,AC50,[1],"10 µM [falling, partial curve]"
O=C(NCC(c1ccc2c(c1)OCO2)N1CCOCC1)C(=O)Nc1ccc(F)cc1F (centres undefined),AC50,[1],"2 µM [falling, full curve]"
O=C(Cn1cnc2c(oc3ccccc32)c1=O)Nc1ccc(OC(F)(F)F)cc1,AC50,[1],"2 µM [rising, partial curve]"
CCOC(=O)CSc1nc2ccc(NC(C)=O)cc2s1,AC50,[1],"10 µM [falling, partial curve]"
O=C(Nc1cccc(Cl)c1)N1CCC(CN2CCOCC2)CC1,AC50,[1],"39.8 µM [rising, single point]"
Cc1cccc(CCNC(=O)c2cnc3c(C)cccn3c2=O)c1,AC50,[1],"39.8 µM [falling, single point]"
CC(C)(C)c1ccc(S(=O)(=O)c2cn(CC(=O)Nc3ccccc3)c3ccccc3c2=O)cc1,AC50,[1],"1 µM [falling, partial curve]"
Cc1ccc(CNC(=O)c2ccc3c(c2)N(Cc2ccccc2)C(=O)c2ccccc2S3(=O)=O)cc1,AC50,[1],"10 µM [falling, partial curve]"
O=C(CCC1N=C2c3ccccc3N=C(SCc3ccccc3F)N2C1=O)NCCc1ccccc1 (centres undefined),AC50,[1],"39.8 µM [falling, single point]"
CCn1c(SCc2ccc(F)cc2Cl)nnc1-c1nonc1NC(C)=O,AC50,[1],"15.8 µM [falling, partial curve]"
CCOCC(=O)Nc1nc2ccc(OC)cc2s1,AC50,[1],"15.8 µM [falling, partial curve]"
Cc1cc2c(cc1C)NC(CC(=O)Nc1cccc(Cl)c1)C(=O)N2 (centres undefined),AC50,[1],"15.8 µM [falling, partial curve]"
C=CCc1cccc2cc(C(=O)NCCc3c(C)[nH]c4c(C)cccc34)c(=O)oc12,AC50,[1],"31.6 µM [falling, single point]"
CCN(CC)c1ccc(NC(=O)CCc2nc3cccnc3n2Cc2cccs2)c(C)c1,AC50,[1],"0.631 µM [falling, full curve]"
O=C(NCC(c1ccc2c(c1)OCO2)N1CCOCC1)C(=O)Nc1ccccc1 (centres undefined),AC50,[1],"20 µM [falling, single point]"
CNc1ccc(-c2nc(-c3ccco3)no2)cc1[N+](=O)[O-],AC50,[1],"25.1 µM [falling, single point]"
CCOC(=O)N1CCC(NC(=O)c2cnn(-c3ccc(F)cc3F)c2C2CCN(C(=O)OC(C)(C)C)CC2)CC1,AC50,[1],"39.8 µM [falling, partial curve, poor fit]"
O=C(C1CCCN(S(=O)(=O)c2ccc(Br)s2)C1)N1CCN(c2cccc(Cl)c2)CC1 (centres undefined),AC50,[1],"5.01 µM [falling, partial curve]"
CCOC(=O)CN(C(=O)CSc1nnc(-c2ccc(OC)c(OC)c2)o1)c1ccc(F)cc1,AC50,[1],"39.8 µM [falling, single point]"
O=C(c1ccc(C23CC4CC(CC(C4)C2)C3)o1)N1CCOCC1,AC50,[1],"20 µM [falling, single point]"
CCC(C)Sc1oc(-c2ccco2)nc1S(=O)(=O)c1ccc(C)cc1 (centres undefined),AC50,[1],"0.501 µM [rising, full curve, poor fit]"
COc1cccc(CC(=O)Nc2ccc(-c3nc4ccccc4s3)cc2)c1,AC50,[1],"2.51 µM [rising, partial curve]"
Cc1ccc(CNc2ncnc3c2cnn3-c2ccc(Cl)cc2)cc1,AC50,[1],"3.98 µM [rising, partial curve]"
COc1ccccc1C1Nc2c(sc3nc(C)cc(C)c23)C(=O)N1c1ccccc1 (centres undefined),AC50,[1],"31.6 µM [falling, single point]"
Cc1ccc(NC(=O)C(C)Sc2nc(-c3ccccc3)c(C#N)c(=O)[nH]2)c(C)c1 (centres undefined),AC50,[1],"10 µM [falling, partial curve]"

# A different layout for some results above.
smiles	measurement	setting	value
C=CCc1cccc2cc(C(=O)NCCc3c(C)[nH]c4c(C)cccc34)c(=O)oc12	AC50	[1]	31.6 µM [falling, single point]
O=C(c1ccc(C23CC4CC(CC(C4)C2)C3)o1)N1CCOCC1	AC50	[1]	20 µM [falling, single point]
Cc1ccc(CNc2ncnc3c2cnn3-c2ccc(Cl)cc2)cc1	AC50	[1]	3.98 µM [rising, partial curve]
